{
  "source": "paper doi:10.1101/2022.10.27.514150",
  "key": {"Gluc2-p107": {"biological_target": "T1, Gluc2-p107 (UniProt P28749)", "T1 sequence": "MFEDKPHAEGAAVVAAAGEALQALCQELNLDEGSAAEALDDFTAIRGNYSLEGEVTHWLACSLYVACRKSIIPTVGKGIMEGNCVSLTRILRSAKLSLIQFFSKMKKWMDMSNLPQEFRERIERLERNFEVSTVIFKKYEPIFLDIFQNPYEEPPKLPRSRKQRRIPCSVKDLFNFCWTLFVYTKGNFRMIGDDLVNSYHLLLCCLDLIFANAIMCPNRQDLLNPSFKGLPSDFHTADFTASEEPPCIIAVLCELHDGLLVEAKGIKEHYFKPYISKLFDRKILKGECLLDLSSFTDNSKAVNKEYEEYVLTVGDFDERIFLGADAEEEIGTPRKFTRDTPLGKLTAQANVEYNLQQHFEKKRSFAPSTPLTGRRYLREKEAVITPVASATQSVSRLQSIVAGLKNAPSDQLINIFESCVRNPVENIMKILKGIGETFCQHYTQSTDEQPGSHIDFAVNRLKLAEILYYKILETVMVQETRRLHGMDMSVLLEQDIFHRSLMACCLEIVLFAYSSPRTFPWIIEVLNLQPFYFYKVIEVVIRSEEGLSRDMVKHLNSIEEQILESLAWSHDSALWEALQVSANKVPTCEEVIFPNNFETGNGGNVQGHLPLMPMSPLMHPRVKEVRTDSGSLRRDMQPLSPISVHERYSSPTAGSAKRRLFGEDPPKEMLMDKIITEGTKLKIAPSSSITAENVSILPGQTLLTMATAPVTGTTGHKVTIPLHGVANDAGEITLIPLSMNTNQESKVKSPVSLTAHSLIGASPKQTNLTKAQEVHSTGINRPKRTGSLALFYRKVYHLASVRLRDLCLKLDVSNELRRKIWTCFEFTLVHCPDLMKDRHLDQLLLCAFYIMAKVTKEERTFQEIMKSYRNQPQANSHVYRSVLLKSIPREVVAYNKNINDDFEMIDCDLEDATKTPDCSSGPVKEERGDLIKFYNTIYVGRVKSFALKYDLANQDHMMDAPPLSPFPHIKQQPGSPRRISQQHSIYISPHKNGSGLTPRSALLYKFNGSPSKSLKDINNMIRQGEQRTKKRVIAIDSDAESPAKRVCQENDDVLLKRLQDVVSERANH", "experiment": "split reporter"}, "Gluc2-pRb": {"biological_target": "T2, Gluc2-pRb (UniProt P06400)", "T2 sequence": "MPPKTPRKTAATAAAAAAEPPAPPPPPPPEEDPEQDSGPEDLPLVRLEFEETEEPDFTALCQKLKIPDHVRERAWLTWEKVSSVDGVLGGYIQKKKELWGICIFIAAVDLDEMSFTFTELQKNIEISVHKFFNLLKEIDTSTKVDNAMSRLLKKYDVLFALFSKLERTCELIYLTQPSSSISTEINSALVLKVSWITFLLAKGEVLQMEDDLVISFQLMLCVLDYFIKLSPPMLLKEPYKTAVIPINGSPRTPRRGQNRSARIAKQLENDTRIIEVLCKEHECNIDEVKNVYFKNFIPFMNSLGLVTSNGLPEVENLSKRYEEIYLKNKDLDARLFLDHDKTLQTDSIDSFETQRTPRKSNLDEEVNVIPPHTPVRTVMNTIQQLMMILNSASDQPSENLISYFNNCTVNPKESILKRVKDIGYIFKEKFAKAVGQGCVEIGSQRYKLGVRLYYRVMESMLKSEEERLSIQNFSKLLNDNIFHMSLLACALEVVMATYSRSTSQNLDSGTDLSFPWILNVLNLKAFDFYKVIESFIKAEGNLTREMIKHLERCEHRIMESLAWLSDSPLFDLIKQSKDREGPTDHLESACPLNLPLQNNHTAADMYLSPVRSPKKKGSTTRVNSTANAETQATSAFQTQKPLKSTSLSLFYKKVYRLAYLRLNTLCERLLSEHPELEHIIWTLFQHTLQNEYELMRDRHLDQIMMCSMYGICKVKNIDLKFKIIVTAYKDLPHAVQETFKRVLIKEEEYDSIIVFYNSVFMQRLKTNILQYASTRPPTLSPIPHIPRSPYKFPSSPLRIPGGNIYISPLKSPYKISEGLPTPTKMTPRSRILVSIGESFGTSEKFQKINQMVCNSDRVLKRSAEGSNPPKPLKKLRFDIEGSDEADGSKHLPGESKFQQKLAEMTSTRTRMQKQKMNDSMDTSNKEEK", "experiment": "split reporter"}},
  "note": "These are yes or no findings as the source states them, for the method shown. Binding seen in cells or lysates may run through a third protein. A result given as binding can be weak or reduced; the word gives no strength. Sequences can lack the tags named with a protein.",
  "data": [
    {"substance": "Gluc1-38.E7 (human papillomavirus type 38)", "values": [
      {"measurement": "binding", "setting": "Gluc2-p107", "result": "binds"},
      {"measurement": "binding", "setting": "Gluc2-pRb", "result": "binds"}
    ]}
  ]
}
